Measurements as given in PMC3975624.
No constants are given. Whether binding was seen depends on the method and setting. Binding seen in cells or lysates may run through a third protein. Some results given as binding are weak or reduced against the parent protein; the word gives no strength. Sequences can lack the tags named with a protein.

T1: Mic10-His6 (S. cerevisiae) (UniProt Q96VH5)
T1 sequence: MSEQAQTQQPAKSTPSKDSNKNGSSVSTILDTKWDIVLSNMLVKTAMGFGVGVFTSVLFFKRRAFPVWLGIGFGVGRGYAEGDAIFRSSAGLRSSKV


Target: T1, Mic10-His6 (S. cerevisiae)
Experiment: pull-down; mitochondria (1 mg protein) from a strain expressing Mic10-His6 lysed with 1% digitonin (50 mM potassium phosphate, 50 mM NaCl, 10 mM imidazole, pH 8.0, 1 mM PMSF); Ni-NTA beads; bound proteins eluted with Laemmli buffer with 300 mM imidazole; immunoblotting

Row | binding | Binder
1 | binds | Mic19 (protein, UniProt P43594 1-170) MGSNTSKVGAGAEKQQVYTPLTQIDFSQSLVSQLDSSKESDYVTKQNAEKFIEKKVSQRLSNLEVETLKKFEDTLNNSLLSDDDKDAVDGISSSSLNNQIESLNKKLTLFDQLELQKLEKYGGAKGKSDKKTDNGSISIKAKLTECLLANKGKPLNCYEEMEEFKKLVMG
2 | binds | Mic12 (protein, UniProt P38341 1-106) MSKLGPLARSVKWTLSVGVIGSVFYLYRYSNNGYFYDHDATWLKQDHQVQDLVDRKEVVPGETRNRKLVVTDDGTAWSRTMGESIKDIWNEQIRNSVDWIYSWGKN
3 | binds | Mic26 (protein, UniProt P50087 1-233) MTKDFYRQLDPVEEKIVPPENAIVISSEAKEATVNEKEAKQGVLSQRVMKYIGENELVDGISVRDPDYLKRFFNERRKQFSAKWDKVTNKIDDIAGRYYAREESFTSTIASLHTDPNERLIPGLLSILVASMTGSVLARRRTWLLRATMPIILGSCCFAYAMPTTFRNTMGLIHNLEMNTFPHFTERQDRVWKETKRLSTASVQYYYDAKKWLNKDVEKTGNAIKNWTGVNVK
4 | binds | Mic27 (protein, UniProt P50945 1-234) MVNFYDDVDESKSHGEFPLIPVVLQNSSELSVRTIPTGNEIIESVHLTKWLRKYRNALASQLDRYEKGWQSKIANFRLQVQHVINYSRKNIFNVDSENKHTVVPGSLIALGAFFAGSIAVNRSNWGAKRLIFGHKSSILEKLCTSLPSRILLPWVLAAATFKYWAPQTSQNLVNATENDLLPADFVKSYHNTWKRIYEEGYVAKKCDLKRQIDQTLQKNIRYAREQLYEKLEQA
5 | binds | Mic60 (protein, UniProt P36112 18-540) ASINTGTTVASKKASHKFRNTLWTIALSATAFYAGGIIYSQKNDKFGDFFSNNVPFAEDLLETYEHYHDRPTLFLEDSWDGLKAKSNDLLSGLTGSSQTRRSNRENIEVKKILSLEPLNIETENSDPQLKEIIGSLNDLINSLNDSNLSIPESEFNSIKKSNQNMLTNLSQLNETLKEALSNYMIQRTSEVITELNTQYENSKREFEKNLQKNLLQEVDEFKENLTKQKDKELEEKLKANEELLQAKHANEVGLLSITQVKEFNKIIKDKIEKERNGRLAHLEEINSEVNDLSKSIDRSSKILSKNEALVQLTFQVDEIKSRINNNNLPDVNIDKELSRLKLLSNLLSTFNKKSCCDDGDCCSCKKGNKNEGKEGKISCKCKPKTNPPSLLSVALDELESTCSGKKILSNEQIYNRWNLLADDFKTASLLPPNSGILGQLTAKVFSLFLFTKTGNPSNATDFDSVYARVGDNLRVSNLNDAVEEVVSLKGWPHKVCESWIEDARRKLEVQRLVEILDCEIRTL
